Laboratory results published in paper PMC515284.
These are yes or no findings as the source states them, for the method shown. Some results given as binding are weak or reduced against the parent protein; the word gives no strength.

Amino acid sequences for entries named in this document (tags omitted). A change or cut given only in a name is not applied to a line headed by its entry.
UniProt P28339: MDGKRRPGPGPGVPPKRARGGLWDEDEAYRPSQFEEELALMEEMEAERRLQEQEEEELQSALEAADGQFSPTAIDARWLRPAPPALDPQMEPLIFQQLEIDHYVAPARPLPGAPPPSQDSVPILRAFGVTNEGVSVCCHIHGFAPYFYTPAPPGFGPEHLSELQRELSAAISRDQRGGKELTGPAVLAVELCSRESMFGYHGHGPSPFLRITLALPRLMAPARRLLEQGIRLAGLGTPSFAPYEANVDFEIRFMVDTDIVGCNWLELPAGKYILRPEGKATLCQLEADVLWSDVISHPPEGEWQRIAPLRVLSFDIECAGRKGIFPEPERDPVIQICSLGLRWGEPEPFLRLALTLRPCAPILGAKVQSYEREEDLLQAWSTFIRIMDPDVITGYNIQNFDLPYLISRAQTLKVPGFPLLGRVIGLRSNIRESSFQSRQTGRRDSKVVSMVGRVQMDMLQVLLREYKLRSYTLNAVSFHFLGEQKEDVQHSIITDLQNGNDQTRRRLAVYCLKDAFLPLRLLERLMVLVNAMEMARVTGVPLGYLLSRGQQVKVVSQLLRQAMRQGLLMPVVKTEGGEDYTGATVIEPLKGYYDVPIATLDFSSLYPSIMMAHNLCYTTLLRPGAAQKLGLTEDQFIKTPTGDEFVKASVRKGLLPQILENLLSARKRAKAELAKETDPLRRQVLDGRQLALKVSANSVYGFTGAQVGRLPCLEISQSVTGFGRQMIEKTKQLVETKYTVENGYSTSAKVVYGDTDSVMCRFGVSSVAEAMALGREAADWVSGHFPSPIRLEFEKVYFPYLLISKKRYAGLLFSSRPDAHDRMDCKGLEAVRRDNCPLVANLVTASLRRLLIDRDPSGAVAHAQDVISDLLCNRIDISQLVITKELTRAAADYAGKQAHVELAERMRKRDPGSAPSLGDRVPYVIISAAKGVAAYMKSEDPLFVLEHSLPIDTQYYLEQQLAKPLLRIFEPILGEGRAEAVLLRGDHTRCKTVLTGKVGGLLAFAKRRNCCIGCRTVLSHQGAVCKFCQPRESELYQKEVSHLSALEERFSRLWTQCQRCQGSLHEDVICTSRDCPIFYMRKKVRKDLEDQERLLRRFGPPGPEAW
UniProt P49004: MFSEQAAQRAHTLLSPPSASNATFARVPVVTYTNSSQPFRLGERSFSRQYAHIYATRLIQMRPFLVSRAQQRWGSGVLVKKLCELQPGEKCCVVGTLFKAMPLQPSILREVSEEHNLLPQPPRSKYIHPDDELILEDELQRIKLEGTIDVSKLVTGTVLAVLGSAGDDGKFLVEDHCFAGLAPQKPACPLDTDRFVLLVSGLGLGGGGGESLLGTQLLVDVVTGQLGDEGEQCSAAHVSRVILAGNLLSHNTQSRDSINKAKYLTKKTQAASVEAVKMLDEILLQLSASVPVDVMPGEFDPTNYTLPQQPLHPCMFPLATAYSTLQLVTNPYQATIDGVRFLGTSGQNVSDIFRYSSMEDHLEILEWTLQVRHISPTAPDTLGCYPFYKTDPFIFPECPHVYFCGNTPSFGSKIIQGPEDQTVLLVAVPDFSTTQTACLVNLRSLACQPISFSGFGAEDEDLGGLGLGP
UniProt P17917: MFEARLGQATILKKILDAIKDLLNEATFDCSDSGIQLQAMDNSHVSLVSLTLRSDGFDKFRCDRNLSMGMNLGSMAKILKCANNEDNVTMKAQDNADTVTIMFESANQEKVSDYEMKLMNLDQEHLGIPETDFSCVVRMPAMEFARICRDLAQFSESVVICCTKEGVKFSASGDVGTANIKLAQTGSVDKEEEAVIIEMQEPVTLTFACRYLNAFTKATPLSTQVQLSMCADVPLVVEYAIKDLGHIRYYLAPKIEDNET

Target: calf thymus DNA polymerase δ (two-subunit form) (bovine (endogenous in calf thymus)) (UniProt P28339+P49004)
Experiment: native gel or EMSA; nondenaturing PAGE band mobility shift of 32P-labelled 30-21-mer template-primer (0.1 pmol) with 10 ng pol δ and 70 ng PCNA; without MgCl2, 3 mM EDTA in incubation and gel buffer; essentially qualitative; the complex holds DNA as well; both purified

binding: binds weakly
Substance: NH2-terminally his-tagged wild-type Drosophila PCNA (from UniProt P17917 1-260)
